Test results: US9433577B2 (Merck Patent GmbH, priority 2009, dated 2016)

Assay: general procedure: peptide synthesis; DCCI, DIPCDI or EDCI
Settings: purification step

## cyclo-(Arg-Gly-Asp-DPhe-NMeVal)
Run 1
  final HPLC purity: 99.9%
Run 2
  final HPLC purity: 99.9%
Run 3
  final HPLC purity: 99%
Run 4
  final HPLC purity: 99.8%
